Laboratory results from the supplement of paper PMC12009310.
Where a name gives a salt, the structure may show the parent alone. ± gives the standard deviation of the averaged measurements. The list shows a part of the results. Part of the spread comes from offsets between plates or batches.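 The cells are a mouse kidney inner medullary collecting duct line, silenced either for the ciliary gene Rpgrip1l or with a non-targeting control siRNA.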

Assays:
mIMCD3 [1] = assay: robust z score of cell number vs plate controls; higher = more cells (less cytotoxic); settings: 10 µM, 48 h
mIMCD3 [2] = assay: robust z score of cilia incidence (% cells with single cilium) vs plate controls; higher = more ciliated cells; settings: 10 µM; 48 h; siRNA: siScr
mIMCD3 [3] = assay: robust z score of cilia incidence (% cells with single cilium) vs plate controls; higher = more ciliated cells (rescue of cilia loss); settings: 10 µM; 48 h; siRNA: siRpgrip1l

Row | Compound | robust z score of cell number (mIMCD3 [1]; siRNA: siRpgrip1l) | robust z score of cell number (mIMCD3 [1]; siRNA: siScr) | robust z score of cilia incidence (mIMCD3 [2]) | robust z score of cilia incidence (mIMCD3 [3])
1 | CCOC(=O)C1=C[C@]2(CC)CCCN3CCc4c(n1c1ccccc41)[C@@H]32 [Vinpocetine] | -7 ± 2.2 | 0.499 ± 0.84 | -9.74 ± 1.6 | -20.4 ± 1.6
2 | N=C(N)NC(=O)Cc1c(Cl)cccc1Cl [Guanfacine hydrochloride] | -0.928 ± 2.2 | -8.65 ± 3 | -0.00581 ± 6.7 | -12.2 ± 3.3
3 | CC(CCc1ccc(O)cc1)NCCc1ccc(O)c(O)c1 (stereo not drawn) [Dobutamine hydrochloride] | -16.2 ± 15 | -12.8 ± 8.9 | -0.0742 ± 0.34 | -16.7 ± 2
4 | CCOC(=O)c1c(C)[nH]c2ccc3c(c12)CN1CCc2cc(OC)ccc2C1O3 (stereo not drawn) | -35 ± 30 | -37 ± 23 | -75.8 ± 48 | -81.4 ± 61
5 | COc1ccc(C2CNC(=O)C2)cc1OC1CCCC1 (stereo not drawn) [Rolipram] | -3.36 ± 0.21 | 0.718 ± 1.1 | -0.382 ± 1.8 | -7.43 ± 0.38
6 | COc1ccc(Cl)cc1NC(=O)Nc1cc(C)nc2ccccc12 | -31 ± 29 | -14.6 ± 13 | -25.8 ± 19 | -23.3 ± 2.8
7 | N[C@H](C(=O)O)c1ccc(O)c(C(=O)O)c1 [(S)-3-Carboxy-4-hydroxyphenylglycine] | 8.32 ± 11 | -0.85 ± 3.9 | 2.14 ± 3.5 | -3.35 ± 5.1
8 | CCN1CCC[C@H]1CNC(=O)c1c(OC)ccc(Br)c1OC [Remoxipride hydrochloride] | -3.04 ± 1.1 | -0.211 ± 1.9 | -4.35 ± 2.2 | -10.1 ± 4
9 | C1COC(NC(C2CC2)C2CC2)=N1 [Rilmenidine hemifumarate] | -0.977 ± 2.8 | -3.05 ± 0.73 | -0.666 ± 1.2 | -6.59 ± 0.67
10 | Clc1ccccc1CNCC1CCC(CNCc2ccccc2Cl)CC1 (stereo not drawn) | -194 ± 220 | -44.9 ± 11 | -47.6 ± 13 | -508 ± 330
11 | CC(C)Oc1cccc(-n2c(CCc3c[nH]c4ccc(Br)cc34)nc3ccccc3c2=O)c1 | -26.4 ± 0.81 | -25.2 ± 12 | -21.6 ± 6.1 | -13.4 ± 1.5
12 | Cn1cc(/C=C2\C(=O)Nc3cccnc32)c2ccccc21 | -11.8 ± 2.1 | -18.4 ± 16 | -1.26 ± 2.1 | -18.6 ± 15
13 | Cc1c(C(=O)N(C)C2CCCCC2)sc2nc3ccc(N)cc3n12 | -12.7 ± 4 | -16.2 ± 4.8 | -19 ± 16 | -20.4 ± 16
14 | Cc1c(NC(=O)N2CCOCC2)ccc2c1c1ccccc1n2C(C)C | -14.9 ± 16 | -1.5 ± 5.1 | 1.47 ± 1.8 | -3.31 ± 0.2
15 | CC(CCCCC(=O)Nc1ccc(C(F)(F)F)cc1)NCCc1cnc[nH]1 (stereo not drawn) [HTMT dimaleate] | -10.6 ± 15 | -7.22 ± 6.1 | -1.94 ± 1.5 | -14.5 ± 7.7
16 | CCN(CC)CCOCCOC(=O)C1(c2ccccc2)CCCC1 [Carbetapentane citrate] | -97.1 ± 82 | -64.9 ± 40 | -39.2 ± 2.9 | -46.8 ± 24
17 | NC(=O)CNCCC(c1ccccc1)c1ccccc1 [N20C hydrochloride] | 1.21 ± 1.6 | -5.71 ± 6.5 | -0.541 ± 1.1 | -7.31 ± 2.9

Rewritten as a markdown table: entries from further up

| Row | Compound | robust z score of cell number (mIMCD3 [1]; siRNA: siRpgrip1l) | robust z score of cell number (mIMCD3 [1]; siRNA: siScr) | robust z score of cilia incidence (mIMCD3 [2]) | robust z score of cilia incidence (mIMCD3 [3]) |
| --- | --- | --- | --- | --- | --- |
| 5 | COc1ccc(C2CNC(=O)C2)cc1OC1CCCC1 (stereo not drawn) [Rolipram] | -3.36 ± 0.21 | 0.718 ± 1.1 | -0.382 ± 1.8 | -7.43 ± 0.38 |
| 14 | Cc1c(NC(=O)N2CCOCC2)ccc2c1c1ccccc1n2C(C)C | -14.9 ± 16 | -1.5 ± 5.1 | 1.47 ± 1.8 | -3.31 ± 0.2 |
